Measurements published in patent US10172837B2, “Insulin sensitisers and methods of treatment” (NAIA Metabolic, Inc., priority 2007, dated 2019).

Tested on: Diet-Induced Obese (DIO) Mice
Test: Fasting plasma glucose in diet-induced obese mice
Assay type: in vivo, Mus Musculus

## NS(=O)(=O)c1cc(C(=O)O)c(NCc2ccco2)cc1Cl [Furosemide]
  effect on fasting plasma glucose levels of diet-induced obese mice: no beneficial effect
